# Data as given in the supplement of paper PMC12067093, “Discovery and optimisation of a covalent ligand for TRIM25 and its application to targeted protein ubiquitination” (Chemical Science, 2025).
# The chains behind the UniProt entries cited, without tags or fusion partners. Where a name states a change or a piece, a line headed by the entry shows the natural chain unless it says otherwise.
# UniProt Q9NZB2: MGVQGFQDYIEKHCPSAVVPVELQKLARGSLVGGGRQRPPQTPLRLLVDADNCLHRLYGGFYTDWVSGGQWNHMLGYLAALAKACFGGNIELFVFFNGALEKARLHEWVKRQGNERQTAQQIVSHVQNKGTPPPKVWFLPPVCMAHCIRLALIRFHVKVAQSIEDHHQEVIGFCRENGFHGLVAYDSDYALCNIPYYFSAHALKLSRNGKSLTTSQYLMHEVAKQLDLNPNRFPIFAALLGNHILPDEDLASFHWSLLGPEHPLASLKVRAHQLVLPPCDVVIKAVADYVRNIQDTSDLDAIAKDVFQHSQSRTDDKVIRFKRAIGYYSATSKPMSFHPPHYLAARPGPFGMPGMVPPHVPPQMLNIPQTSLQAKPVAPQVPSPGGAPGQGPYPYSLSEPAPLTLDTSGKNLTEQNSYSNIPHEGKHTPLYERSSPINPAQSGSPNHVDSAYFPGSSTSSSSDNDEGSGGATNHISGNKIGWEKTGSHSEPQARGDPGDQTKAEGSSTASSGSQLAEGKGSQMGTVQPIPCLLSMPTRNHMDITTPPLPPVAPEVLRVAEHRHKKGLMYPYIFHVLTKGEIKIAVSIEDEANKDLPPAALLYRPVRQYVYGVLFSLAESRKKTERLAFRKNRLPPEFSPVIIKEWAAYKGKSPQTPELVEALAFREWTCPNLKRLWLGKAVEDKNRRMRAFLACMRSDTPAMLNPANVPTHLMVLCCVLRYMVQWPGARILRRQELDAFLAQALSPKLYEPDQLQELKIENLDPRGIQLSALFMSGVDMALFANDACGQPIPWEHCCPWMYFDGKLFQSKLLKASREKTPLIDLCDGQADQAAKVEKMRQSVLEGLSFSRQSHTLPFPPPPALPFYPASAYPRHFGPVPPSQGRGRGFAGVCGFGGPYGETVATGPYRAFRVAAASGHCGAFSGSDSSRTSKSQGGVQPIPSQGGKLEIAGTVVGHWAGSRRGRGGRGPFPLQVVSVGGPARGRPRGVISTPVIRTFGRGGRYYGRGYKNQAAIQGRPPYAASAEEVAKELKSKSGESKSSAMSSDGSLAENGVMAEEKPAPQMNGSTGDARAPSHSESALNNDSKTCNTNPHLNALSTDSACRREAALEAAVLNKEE
# UniProt Q96HE7: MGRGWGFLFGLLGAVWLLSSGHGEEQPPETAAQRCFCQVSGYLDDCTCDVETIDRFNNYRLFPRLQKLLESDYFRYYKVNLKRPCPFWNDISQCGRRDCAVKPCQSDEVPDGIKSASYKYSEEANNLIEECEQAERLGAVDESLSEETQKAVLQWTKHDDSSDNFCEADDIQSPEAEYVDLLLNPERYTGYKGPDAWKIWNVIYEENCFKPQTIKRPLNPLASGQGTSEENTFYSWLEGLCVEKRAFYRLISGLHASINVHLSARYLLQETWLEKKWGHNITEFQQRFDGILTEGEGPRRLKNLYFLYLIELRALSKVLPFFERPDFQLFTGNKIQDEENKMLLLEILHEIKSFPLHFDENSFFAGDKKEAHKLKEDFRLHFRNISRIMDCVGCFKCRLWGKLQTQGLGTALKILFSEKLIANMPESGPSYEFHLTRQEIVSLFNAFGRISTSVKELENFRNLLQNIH
# UniProt P50548: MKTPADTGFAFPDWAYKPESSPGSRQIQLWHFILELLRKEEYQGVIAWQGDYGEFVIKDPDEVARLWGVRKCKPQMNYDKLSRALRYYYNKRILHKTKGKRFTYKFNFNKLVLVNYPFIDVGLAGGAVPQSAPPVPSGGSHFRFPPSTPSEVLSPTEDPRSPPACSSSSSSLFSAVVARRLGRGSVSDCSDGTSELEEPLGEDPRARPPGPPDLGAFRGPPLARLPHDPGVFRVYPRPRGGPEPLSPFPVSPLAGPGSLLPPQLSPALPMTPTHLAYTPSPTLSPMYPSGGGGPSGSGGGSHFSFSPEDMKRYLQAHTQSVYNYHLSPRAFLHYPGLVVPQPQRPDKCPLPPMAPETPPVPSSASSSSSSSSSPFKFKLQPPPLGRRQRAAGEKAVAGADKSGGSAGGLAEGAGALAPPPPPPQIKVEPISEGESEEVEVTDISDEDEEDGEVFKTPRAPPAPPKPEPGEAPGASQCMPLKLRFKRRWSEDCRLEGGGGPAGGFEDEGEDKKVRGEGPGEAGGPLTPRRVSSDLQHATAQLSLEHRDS
# UniProt O95571: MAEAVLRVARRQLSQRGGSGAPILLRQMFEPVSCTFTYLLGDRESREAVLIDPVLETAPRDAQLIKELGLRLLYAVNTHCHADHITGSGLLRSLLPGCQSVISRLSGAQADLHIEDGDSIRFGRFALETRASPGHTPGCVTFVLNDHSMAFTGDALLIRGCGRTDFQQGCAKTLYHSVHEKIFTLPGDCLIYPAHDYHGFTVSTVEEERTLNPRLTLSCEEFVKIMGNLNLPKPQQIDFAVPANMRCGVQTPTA
# UniProt P16930: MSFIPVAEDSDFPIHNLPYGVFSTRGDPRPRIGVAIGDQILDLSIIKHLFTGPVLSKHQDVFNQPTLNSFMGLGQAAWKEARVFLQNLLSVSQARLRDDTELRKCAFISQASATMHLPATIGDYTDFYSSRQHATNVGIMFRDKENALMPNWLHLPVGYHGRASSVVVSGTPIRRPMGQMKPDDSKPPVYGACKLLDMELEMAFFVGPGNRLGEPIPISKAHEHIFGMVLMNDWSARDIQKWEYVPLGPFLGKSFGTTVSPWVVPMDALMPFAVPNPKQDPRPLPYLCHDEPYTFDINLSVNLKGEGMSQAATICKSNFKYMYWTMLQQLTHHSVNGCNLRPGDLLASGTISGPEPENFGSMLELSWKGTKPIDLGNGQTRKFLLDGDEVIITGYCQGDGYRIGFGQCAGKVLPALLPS
# UniProt Q93063: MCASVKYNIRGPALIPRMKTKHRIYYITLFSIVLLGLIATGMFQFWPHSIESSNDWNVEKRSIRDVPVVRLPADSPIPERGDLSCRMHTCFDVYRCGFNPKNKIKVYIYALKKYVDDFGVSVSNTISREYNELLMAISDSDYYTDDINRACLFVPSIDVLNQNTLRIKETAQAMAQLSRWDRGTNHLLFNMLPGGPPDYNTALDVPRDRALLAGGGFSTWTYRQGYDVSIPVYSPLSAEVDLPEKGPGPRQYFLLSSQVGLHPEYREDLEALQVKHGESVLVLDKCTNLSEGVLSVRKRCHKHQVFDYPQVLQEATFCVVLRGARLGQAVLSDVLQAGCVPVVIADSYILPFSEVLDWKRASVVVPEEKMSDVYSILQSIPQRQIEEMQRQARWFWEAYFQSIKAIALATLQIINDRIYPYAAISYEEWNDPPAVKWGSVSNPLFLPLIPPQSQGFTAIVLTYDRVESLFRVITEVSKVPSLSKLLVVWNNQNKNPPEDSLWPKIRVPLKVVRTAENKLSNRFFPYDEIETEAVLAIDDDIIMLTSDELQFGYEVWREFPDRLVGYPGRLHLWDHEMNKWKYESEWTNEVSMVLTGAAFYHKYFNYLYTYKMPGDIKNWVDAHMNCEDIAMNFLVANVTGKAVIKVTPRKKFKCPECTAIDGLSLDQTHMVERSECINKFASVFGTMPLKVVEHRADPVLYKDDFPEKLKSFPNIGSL
# UniProt O43414: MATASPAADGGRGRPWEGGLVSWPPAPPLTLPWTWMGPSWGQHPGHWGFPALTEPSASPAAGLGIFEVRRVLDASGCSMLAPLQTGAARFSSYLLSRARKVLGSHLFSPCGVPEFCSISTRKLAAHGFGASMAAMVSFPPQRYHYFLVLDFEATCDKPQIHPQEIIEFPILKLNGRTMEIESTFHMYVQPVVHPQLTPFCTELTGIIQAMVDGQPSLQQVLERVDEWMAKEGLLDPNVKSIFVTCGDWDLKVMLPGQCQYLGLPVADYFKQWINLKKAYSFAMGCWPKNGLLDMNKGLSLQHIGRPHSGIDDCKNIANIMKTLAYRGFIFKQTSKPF
# UniProt Q15024, whole entry, looked up: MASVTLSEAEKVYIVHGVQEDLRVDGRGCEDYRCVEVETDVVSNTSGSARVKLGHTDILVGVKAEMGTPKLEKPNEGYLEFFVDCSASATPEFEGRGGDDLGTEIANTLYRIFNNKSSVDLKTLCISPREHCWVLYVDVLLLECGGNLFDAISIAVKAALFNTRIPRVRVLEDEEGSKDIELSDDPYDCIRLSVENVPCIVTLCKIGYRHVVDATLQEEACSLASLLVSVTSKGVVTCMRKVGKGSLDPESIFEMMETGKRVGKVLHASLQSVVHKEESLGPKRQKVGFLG
# UniProt P41212: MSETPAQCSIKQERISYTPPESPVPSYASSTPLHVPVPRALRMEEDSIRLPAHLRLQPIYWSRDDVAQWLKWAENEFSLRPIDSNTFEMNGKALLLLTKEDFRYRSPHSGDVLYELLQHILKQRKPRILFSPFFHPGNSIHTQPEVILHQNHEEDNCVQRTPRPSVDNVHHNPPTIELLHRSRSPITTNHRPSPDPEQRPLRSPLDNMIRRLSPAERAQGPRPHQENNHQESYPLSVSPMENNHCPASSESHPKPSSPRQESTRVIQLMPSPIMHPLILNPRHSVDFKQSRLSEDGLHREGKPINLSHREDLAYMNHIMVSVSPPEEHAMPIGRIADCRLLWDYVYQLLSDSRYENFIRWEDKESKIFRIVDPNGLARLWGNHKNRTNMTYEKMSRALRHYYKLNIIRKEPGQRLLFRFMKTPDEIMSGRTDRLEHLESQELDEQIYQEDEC
# UniProt Q96CS3: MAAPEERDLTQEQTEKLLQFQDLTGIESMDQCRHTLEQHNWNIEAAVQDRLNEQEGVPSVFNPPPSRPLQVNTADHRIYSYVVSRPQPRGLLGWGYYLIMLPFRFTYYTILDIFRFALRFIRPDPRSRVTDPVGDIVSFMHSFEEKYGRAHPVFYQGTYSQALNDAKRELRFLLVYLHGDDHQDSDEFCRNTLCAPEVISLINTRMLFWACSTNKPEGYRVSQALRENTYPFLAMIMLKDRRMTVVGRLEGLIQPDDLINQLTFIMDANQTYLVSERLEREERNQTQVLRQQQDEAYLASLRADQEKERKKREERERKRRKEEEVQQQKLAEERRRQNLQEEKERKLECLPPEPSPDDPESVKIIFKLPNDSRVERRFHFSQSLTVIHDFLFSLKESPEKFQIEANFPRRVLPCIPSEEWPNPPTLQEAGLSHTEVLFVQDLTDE
# UniProt Q96DZ1: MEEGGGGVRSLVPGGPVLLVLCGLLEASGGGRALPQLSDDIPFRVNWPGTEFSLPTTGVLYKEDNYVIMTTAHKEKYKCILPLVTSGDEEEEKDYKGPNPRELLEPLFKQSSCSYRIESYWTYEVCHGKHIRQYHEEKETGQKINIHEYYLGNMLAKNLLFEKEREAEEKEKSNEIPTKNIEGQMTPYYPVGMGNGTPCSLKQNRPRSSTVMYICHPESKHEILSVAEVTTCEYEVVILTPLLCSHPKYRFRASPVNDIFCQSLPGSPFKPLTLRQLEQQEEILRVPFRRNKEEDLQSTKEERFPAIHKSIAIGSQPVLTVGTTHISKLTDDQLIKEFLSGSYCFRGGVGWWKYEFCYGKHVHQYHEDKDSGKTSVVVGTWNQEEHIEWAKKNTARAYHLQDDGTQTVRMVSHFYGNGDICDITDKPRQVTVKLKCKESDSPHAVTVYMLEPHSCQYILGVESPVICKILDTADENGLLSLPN
# UniProt P38117: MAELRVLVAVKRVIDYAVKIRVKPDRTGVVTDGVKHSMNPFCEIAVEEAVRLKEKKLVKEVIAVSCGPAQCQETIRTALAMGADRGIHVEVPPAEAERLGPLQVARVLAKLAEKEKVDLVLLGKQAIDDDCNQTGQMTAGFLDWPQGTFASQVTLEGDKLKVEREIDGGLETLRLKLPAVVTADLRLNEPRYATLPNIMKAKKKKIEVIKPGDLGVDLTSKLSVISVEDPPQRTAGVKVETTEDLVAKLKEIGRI
# UniProt Q9NPD3, whole entry: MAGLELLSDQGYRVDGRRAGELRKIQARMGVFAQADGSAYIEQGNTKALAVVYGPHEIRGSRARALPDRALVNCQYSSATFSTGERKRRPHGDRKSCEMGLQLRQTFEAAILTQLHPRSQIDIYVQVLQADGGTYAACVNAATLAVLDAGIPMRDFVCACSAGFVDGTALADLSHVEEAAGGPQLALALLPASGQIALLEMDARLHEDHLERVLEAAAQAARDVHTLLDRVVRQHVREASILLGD
# UniProt P13804: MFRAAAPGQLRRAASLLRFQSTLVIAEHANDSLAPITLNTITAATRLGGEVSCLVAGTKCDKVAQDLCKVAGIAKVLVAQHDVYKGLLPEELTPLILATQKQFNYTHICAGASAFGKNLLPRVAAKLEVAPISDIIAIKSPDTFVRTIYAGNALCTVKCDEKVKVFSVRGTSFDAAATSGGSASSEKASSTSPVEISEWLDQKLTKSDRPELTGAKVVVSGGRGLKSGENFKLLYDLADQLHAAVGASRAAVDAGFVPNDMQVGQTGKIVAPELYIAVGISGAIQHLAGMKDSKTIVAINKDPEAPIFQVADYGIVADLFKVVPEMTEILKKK
# The other results are listed elsewhere or left out.
# Compound: Cc1cc(ccc1-c1ccccc1)C(=O)N1CCCN(CC1)C(=O)CCl [compound 10]
# Assay: probe-labelled cysteine peptide fold change vs DMSO (competition) (log2 fold change); higher = less target engagement (more negative = stronger competition)
# Conditions: 50 µM; THP-1; incubation time: 4 h
# 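Note: competitive profiling in live THP-1 cells: cysteine peptides tagged with an iodoacetamide desthiobiotin (IA-DTB) probe, intensity after compound treatment relative to DMSO-treated cells.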
row,Target,probe-labelled cysteine peptide fold change
1,FAM120A_Q9NZB2_192_ENGFHGLVAYDSDYALCNIPYYFSAHALK (UniProt Q9NZB2),0.151
2,ERO1A_Q96HE7_208_IWNVIYEENCFKPQTIK (UniProt Q96HE7),0.192
3,ERO1A_Q96HE7_99+104_DCAVKPCQSDEVPDGIK (UniProt Q96HE7),-0.143
4,ERF_P50548_492_WSEDCR (UniProt P50548),0.0174
5,ETHE1_O95571_34_QMFEPVSCTFTYLLGDR (UniProt O95571),0.52
6,FAH_P16930_105_CAFISQASATMHLPATIGDYTDFYSSR (UniProt P16930),-0.0356
7,EXOSC10_Q01780_612_LENVLFGPHDCSHAPPDGYPIIPTSGSVPVQK (UniProt Q01780),-0.114
8,ETHE1_O95571_34_QMFEPVSCTFTYLLGDRESR (UniProt O95571),-0.453
9,FAM126A_Q9BYI3_57_VIQEPQSELLEPVCHQLFEFYR (UniProt Q9BYI3),0.076
10,EXOSC5_Q9NQT4_209_GLYSDTELQQCLAAAQAASQHVFR (UniProt Q9NQT4),0.385
11,FAF1_Q9UNN5_428_FLTMCNR (UniProt Q9UNN5),0.153
12,FAM129A_Q9BZQ8_763_EPSQAAAIHPDNCEESEVSER (UniProt Q9BZQ8),0.415
13,ERLIN2_O94905_262_AKADAECYTAMK (UniProt O94905),-0.183
14,EXT2_Q93063_657_CPECTAIDGLSLDQTHMVER (UniProt Q93063),0.0481
15,ERI3_O43414_313_GLSLQHIGRPHSGIDDCK (UniProt O43414),0.0877
16,EXOC7_Q9UPT5_83_TLSCLDHVISYYHVASDTEK (UniProt Q9UPT5),-0.117
17,F2_P00734_594_WYQMGIVSWGEGCDR (UniProt P00734),-0.471
18,FAAP100_Q0VG06_309+311_TEPQAAEAAENFLPDEDVHCDCLVAFGHHGR (UniProt Q0VG06),-0.399
19,FAM120B_Q96EK7_380_QEVPMCSDPEPR (UniProt Q96EK7),-0.128
20,EXOSC7_Q15024_189_DIELSDDPYDCIR (UniProt Q15024),0.261

# Fetched one by one from the list above, 2 records:
row,Target,probe-labelled cysteine peptide fold change
15,ERI3_O43414_313_GLSLQHIGRPHSGIDDCK (UniProt O43414),0.0877
14,EXT2_Q93063_657_CPECTAIDGLSLDQTHMVER (UniProt Q93063),0.0481

# Later entries:

row,Target,probe-labelled cysteine peptide fold change
1,EXOC6_Q8TAG9_28_ILQEIESTDTACVGPTLR (UniProt Q8TAG9),0.176
2,ETV6_P41212_452_TDRLEHLESQELDEQIYQEDEC (UniProt P41212),0.00988
3,FAAP100_Q0VG06_309_TEPQAAEAAENFLPDEDVHCDCLVAFGHHGR (UniProt Q0VG06),0.172
4,EZR_P15311_284_ILQLCMGNHELYMR (UniProt P15311),0.00653
5,ETFDH_Q16134_589_LQINAQNCVHCK (UniProt Q16134),0.109
6,FAM102B_Q5T8I3_254_NTSVGSTSTGVESILEPCDEIEQK (UniProt Q5T8I3),-0.086
7,FAF2_Q96CS3_189_FLLVYLHGDDHQDSDEFCR (UniProt Q96CS3),0.0993
8,ERLEC1_Q96DZ1_126_IESYWTYEVCHGK (UniProt Q96DZ1),0.0829
9,ETFB_P38117_66+71_EVIAVSCGPAQCQETIR (UniProt P38117),-0.188
10,ERP44_Q9BS26_301_GTINFLHADCDK (UniProt Q9BS26),0.0373
11,EXOSC4_Q9NPD3_97_SCEMGLQLR (UniProt Q9NPD3),-0.136
12,ERGIC1_Q969X5_115_IPLNNGAGCR (UniProt Q969X5),0.156
13,ETFA_P13804_109_QFNYTHICAGASAFGK (UniProt P13804),-0.0627
14,ERO1A_Q96HE7_104_PCQSDEVPDGIK (UniProt Q96HE7),0.0155
15,FAF2_Q96CS3_349_KLECLPPEPSPDDPESVK (UniProt Q96CS3),0.0455
16,FAH_P16930_315_GEGMSQAATICK (UniProt P16930),0.12
17,ERO1B_Q86YB8_165_YDDSRDHFCELDDERSPAAQYVDLLLNPER (UniProt Q86YB8),-0.184
18,ESF1_Q9H501_462_IYEDCDGLEFESSCSFIDLR (UniProt Q9H501),0.0687
19,FAM120A_Q9NZB2_919_VAAASGHCGAFSGSDSSR (UniProt Q9NZB2),-0.344
20,ETS1_P14921_237_QEVVTPDNMCMGR (UniProt P14921),-0.276
